Data: patent US20140105871A1, “Use Of Mesenchymal Stem Cells For The Improvement Of Affective And Cognitive Function” (priority 2011, published 2014)
At least one compound was matched to its structure with a doubt left.

System: murine model of schizophrenia (ketamine-injected female ICR pups)
Assay: Social preference (social discrimination, recognition index) in ketamine-injected pups, murine model of schizophrenia
Format: in vivo, mouse
Details: Example 6; intraperitoneal; day 7 of treatment course; FIG. 18

## CN1CCN(C2=Nc3cc(Cl)ccc3Nc3ccccc32)CC1 [Clozapine, clozapine]
  preference for the novel mouse (recognition index) vs Ket control: improved preference
